Laboratory results published in PubChem BioAssay AID2685 (National Center for Advancing Translational Sciences (NCATS), 2010).
Some of the results follow. These are further read-outs of the screen, such as a control signal, another cell line or another target. No call is given for them. Most of these compounds were active or inconclusive in the main read-out, so they are no random draw. Words in brackets tell the shape of the fitted curve; partial curves, single points and poor fits give uncertain potencies.

Assay: qHTS Assay for Lipid Storage Modulators in Drosophila S3 Cells;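 for cell number change: cells counted by Cell Tracker Red CMTPX staining in the red channel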
Conditions: BODIPY lipid droplet fluorescence, 18-24 h; for cell number change: measured here: cell count max response, cells fed with added oleic acid
Method in brief: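 Drosophila S3 cells got compounds at several concentrations plus oleic acid (400 uM solution). Laser-scanning cytometry with 488 nm excitation read lipid droplets at 500-530 nm and cells at 575-640 nm. Percent activity was relative to 20 uM Triacsin C.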

[1] = measured here: lipid fluorescence (Fed channel) AC50, cells fed with added oleic acid
[2] = measured here: cell number channel AC50, cells fed with added oleic acid

| SMILES | cell number change [%] | AC50 [1] | AC50 [2] |
| --- | --- | --- | --- |
| NC(=O)C1CNc2ccccc2O1 (stereo unspecified) | -0.651 | 20.6 µM [falling, single point] | – |
| FC(F)(F)c1cccc(Sc2nc(-c3ccccc3)nnc2C(F)(F)F)c1 | -109 | 29.1 µM [falling, single point] | 23.1 µM [falling, single point] |
| CCOC(=O)N1CCN(C(=O)/C=C/c2ccc([N+](=O)[O-])cc2)CC1 | -38.1 | 0.891 µM [rising, full curve, poor fit] | – |
| COc1ccc(-c2nc(=S)c3ccc4ccccc4c3[nH]2)cc1 | 24.5 | 6.51 µM [rising, partial curve] | 6.51 µM [rising, partial curve, poor fit] |
| O=C(O/N=C1\CCCc2ccccc21)c1ccc(F)cc1 | 66.9 | 16.4 µM [rising, single point] | 29.1 µM [rising, single point] |
| Cc1nc(CCNC(=O)COc2ccccc2)cs1 | 85.3 | 6.51 µM [rising, single point] | 10.3 µM [rising, partial curve] |
| COCCOC(=O)c1c(C)oc2ccc(OC(=O)c3ccco3)cc12 | -16.1 | 4.61 µM [rising, partial curve, poor fit] | – |
| Cc1onc(-c2ccccc2)c1C(=O)NC1CCC(C)CC1 (stereo unspecified) | -12.2 | 5.8 µM [falling, partial curve] | – |
| CCOc1cc(NC(=O)C2CC2)c(OCC)cc1NC(=O)c1cccnc1 | 10.8 | 7.31 µM [rising, partial curve] | – |
| COc1ccccc1C(=O)OCC(=O)c1cccc([N+](=O)[O-])c1 | -19.7 | 23.1 µM [falling, partial curve, poor fit] | – |
| O=C(c1ccco1)N1CCN(C(=O)C2Cc3ccccc3CN2S(=O)(=O)c2ccc(F)cc2)CC1 (stereo unspecified) | -3.66 | – | 0.82 µM [falling, full curve, poor fit] |
| Cc1ccc(NC(=O)Cn2c(=O)n(Cc3ccco3)c(=O)c3ccccc32)c(C)c1 | 143 | 0.0651 µM [rising, full curve] | 0.0259 µM [rising, full curve, poor fit] |
| COc1ccc(OC)c(NC(=O)NC2CCCc3ccccc32)c1 (stereo unspecified) | 5.3 | – | – |
| CCOC(=O)N1CCN(C(c2ccc(F)cc2)c2sc3nc(C)nn3c2O)CC1 (stereo unspecified) | 41.8 | 29.1 µM [rising, single point] | 29.1 µM [rising, single point] |
| Cc1ccc(NC(=S)NNC(=O)c2nn(C)c(C)c2Cl)cc1 | 16 | 29.1 µM [rising, single point] | – |
| COc1ccc(N(C(=O)c2ccn[nH]2)C(C(=O)NC(C)(C)C)c2ccc(F)cc2)cc1 (stereo unspecified) | -16.5 | – | – |
| COC(=O)CSc1nnc(-c2cccnc2)n1C | -15.5 | – | – |
| Cc1ccc(N(C(=O)c2csnn2)C(C(=O)NC2CCCCC2)c2ccncc2)cc1 (stereo unspecified) | 2.56 | 5.17 µM [rising, single point] | – |
| Cc1ccc(CNC(=O)C2CCCN2C(=O)NCc2ccccc2)cc1 (stereo unspecified) | 4.46 | 0.651 µM [rising, full curve] | 0.82 µM [rising, full curve] |
| COc1ccc(/C=C2\CCn3c2nc2ccccc2c3=O)cc1OC | 20 | 29.1 µM [falling, single point] | – |

| SMILES | cell number change [%] | AC50 [1] | AC50 [2] |
| --- | --- | --- | --- |
| CCOc1cc(Br)cc(/C=N/NC(=O)c2cccnc2)c1O | – | 6.51 µM [rising, partial curve, poor fit] | – |
| COc1ccc(C(C(=O)NC2CCCC2)N(CCO)C(=O)Cn2nnc(-c3ccc(C)o3)n2)cc1OC (stereo unspecified) | -28.9 | 14.1 µM [rising, single point] | – |
| COc1ccc(C2NC(=O)CCC2[N+](=O)[O-])c(OC)c1 (stereo unspecified) | 32.3 | 0.731 µM [rising, full curve] | 0.82 µM [rising, full curve, poor fit] |
| CC1=CC(C)(C)N(C(=O)CSc2nnc(C)s2)c2ccc(C)cc21 | -10.2 | 25.9 µM [falling, partial curve] | – |
| CNC(=O)c1ccc(Oc2ccc(C(=O)NC)cc2)cc1 | -1.6 | 3.66 µM [rising, single point] | – |
| COc1ccc(OC)c(CNS(=O)(=O)c2cc(-c3cc(C)no3)ccc2OC)c1 | -29.7 | 10.3 µM [falling, single point] | – |
| CCOc1cc(C2C(C(=O)N3CCCCC3)=C(C)NC3=C2C(=O)CC(C)(C)C3)ccc1O (stereo unspecified) | -19.5 | – | 1.46 µM [falling, full curve, poor fit] |
| CCCC(c1nnnn1CC1CCCO1)N1CCN(c2cc(Cl)ccc2C)CC1 (stereo unspecified) | -25.9 | – | 0.206 µM [falling, full curve, poor fit] |
| Cc1occc(=O)c1O | 21.5 | 4.61 µM [falling, full curve] | – |
| CCN1CCN(CCCNC(=O)c2ccc(/C=C3/Sc4ccccc4N(Cc4ccccc4F)C3=O)cc2)CC1 | -27.3 | 18.4 µM [falling, single point] | – |
| Cc1csc(Sc2ccc([N+](=O)[O-])cc2C(=O)OCC(=O)NC2CCCC(C)C2C)n1 (stereo unspecified) | -23.6 | – | – |
| CSc1nc(Sc2ccccc2Cl)c2ccccc2n1 | – | 0.651 µM [falling, single point] | – |
| CC1CCN(C(=O)c2[nH]cnc2C(=O)NCC(=O)OC(C)(C)C)CC1 | 9.88 | 8.2 µM [rising, partial curve] | – |
| O=C1C=C(c2ccc(Cl)c(C(F)(F)F)c2)C[C@@H](c2ccc(F)cc2)C1 | -6.57 | 6.51 µM [falling, single point] | – |
| CCN(C(=O)CCc1nnc2ccc(N3CCC4(CC3)OCCO4)nn12)c1ccccc1 | 11.3 | – | – |
| O=S(=O)(c1ccc(NCc2ccccc2)cc1)N1CCOCC1 | 18.2 | 5.8 µM [rising, full curve, poor fit] | – |
| CCc1nc(OCC(=O)c2ccccc2)c(C#N)c2c1COC(C)(C)C2 | – | 0.103 µM [rising, full curve, poor fit] | 3.66 µM [rising, partial curve, poor fit] |
| CS/C(=C\[N+](=O)[O-])Nc1ccccc1 | -36.4 | 3.66 µM [falling, partial curve] | 5.8 µM [falling, full curve] |
| CC(=O)Nc1ccc(N(CC(O)Cn2c3ccccc3c3ccccc32)S(=O)(=O)c2ccc(C)cc2)cc1 (stereo unspecified) | 0.176 | 4.11 µM [rising, single point] | – |
| C/C=C/C(=O)OCC(=O)Nc1cccc(Br)c1 | -15.7 | – | – |

| SMILES | cell number change [%] | AC50 [1] | AC50 [2] |
| --- | --- | --- | --- |
| Cc1cccc(-c2nnc(SCC(=O)Nc3ncccn3)n2C)c1 | 10 | 2.06 µM [falling, partial curve] | – |
| COc1cccc(NS(=O)(=O)c2ccc3c(c2)CCCN3C(C)=O)c1 | 2.76 | 6.51 µM [rising, partial curve] | 1.3 µM [rising, full curve] |
| O=C(O)[C@H]1CCCC[C@H]1C(=O)Nc1ccc(S(=O)(=O)N2CCOCC2)cc1 | 19.2 | 6.51 µM [falling, single point] | – |
| COc1ccc(CCOC(=O)CNC(=O)c2ccc(Cl)cc2Cl)cc1 | 5.2 | – | – |
| Cc1[nH]n(-c2ccc([N+](=O)[O-])cc2)c(=O)c1C=NCCN1CCN(C(=O)c2ccc(F)cc2)CC1 | 11.1 | 1.64 µM [rising, partial curve, poor fit] | – |
| CCCCn1nc(C(=O)Nc2nc3c(s2)CCCC3)c2ccccc2c1=O | – | – | 6.51 µM [rising, partial curve, poor fit] |
| COC(=O)c1c(C)[nH]c(C(=O)C(C)OC(=O)C2CC(=O)N(CCc3ccccc3)C2)c1C (stereo unspecified) | -20 | 32.6 µM [falling, partial curve, poor fit] | – |
| COCCN1CN=C(Nc2nc3ccccc3s2)NC1 | -20.2 | 6.51 µM [falling, partial curve, poor fit] | – |
| CN1CCN(S(=O)(=O)c2cccc(C(=O)Oc3ccc(Br)cc3F)c2)CC1 | 38.7 | – | – |
| CCS(=O)(=O)NCC(c1ccco1)N1CCN(c2ccccc2F)CC1 (stereo unspecified) | -6.58 | 10.3 µM [rising, partial curve] | – |
| C=CCSc1cc(C)nc2c(-c3ccc(Cl)cc3)c(C)nn12 | -4.55 | – | – |
| Clc1cccc(N/N=C(\Cc2nc3ccccc3[nH]2)c2ccccc2)c1 | -54.3 | 16.4 µM [falling, single point] | 16.4 µM [falling, single point] |
| Cc1cccc(N(C(=O)c2snc(C(N)=O)c2N)C(C)C(=O)NCC2CCCO2)c1 (stereo unspecified) | 29.4 | 8.2 µM [rising, single point] | 4.61 µM [rising, full curve, poor fit] |
| CN(C)C(/C=C/Nc1ccc([N+](=O)[O-])cc1)=C(C#N)C#N | 17.3 | 0.00461 µM [rising, full curve, poor fit] | – |
| C=CCN1CCN(C(=O)CCc2ccccc2)CC1 | 8.24 | 5.17 µM [falling, single point] | – |
| COc1ccc(S(=O)(=O)N2CCN(C3CCCC(C)C3)CC2)cc1 (stereo unspecified) | -3.17 | – | 0.411 µM [rising, partial curve, poor fit] |
| COCCc1nnc(NC(=O)C(C)C)s1 | -47.3 | 16.4 µM [falling, single point] | 29.1 µM [falling, single point] |
| O=C1c2ccccc2C(=O)N1CCCCSc1nnc2ccccn12 | -0.0698 | – | – |
